Source: ChEMBL document CHEMBL3988442, “University of Dundee, Small-Polar-MMV Screening Library” (2021).

By UniProt entry, the sequences of proteins in these tests, tags left out. Residues count along the entry.
UniProt Q4DA54, 1-478: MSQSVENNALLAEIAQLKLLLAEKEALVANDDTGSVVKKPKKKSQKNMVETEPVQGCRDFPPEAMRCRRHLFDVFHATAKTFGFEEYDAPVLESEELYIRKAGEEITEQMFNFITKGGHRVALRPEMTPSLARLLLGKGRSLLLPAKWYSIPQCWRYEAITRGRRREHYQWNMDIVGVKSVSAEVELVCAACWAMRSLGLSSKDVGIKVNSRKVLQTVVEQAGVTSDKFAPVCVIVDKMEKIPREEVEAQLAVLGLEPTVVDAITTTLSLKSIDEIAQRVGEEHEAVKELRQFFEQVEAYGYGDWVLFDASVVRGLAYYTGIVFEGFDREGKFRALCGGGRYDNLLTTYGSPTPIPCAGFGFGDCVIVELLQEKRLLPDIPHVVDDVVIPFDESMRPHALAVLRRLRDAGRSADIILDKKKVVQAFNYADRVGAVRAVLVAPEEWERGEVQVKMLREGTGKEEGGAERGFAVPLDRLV
UniProt P9WNZ1, whole entry: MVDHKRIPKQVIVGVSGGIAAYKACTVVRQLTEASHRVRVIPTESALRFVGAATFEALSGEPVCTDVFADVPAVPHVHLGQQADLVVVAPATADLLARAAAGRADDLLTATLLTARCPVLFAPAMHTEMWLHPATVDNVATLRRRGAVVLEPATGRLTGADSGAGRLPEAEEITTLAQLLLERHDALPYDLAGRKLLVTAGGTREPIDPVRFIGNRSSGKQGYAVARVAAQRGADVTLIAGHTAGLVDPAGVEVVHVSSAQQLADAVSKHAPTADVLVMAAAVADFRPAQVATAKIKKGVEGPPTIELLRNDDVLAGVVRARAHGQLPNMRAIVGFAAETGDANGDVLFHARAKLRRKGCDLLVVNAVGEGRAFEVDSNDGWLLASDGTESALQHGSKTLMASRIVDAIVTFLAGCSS
UniProt A4I591, 1-473: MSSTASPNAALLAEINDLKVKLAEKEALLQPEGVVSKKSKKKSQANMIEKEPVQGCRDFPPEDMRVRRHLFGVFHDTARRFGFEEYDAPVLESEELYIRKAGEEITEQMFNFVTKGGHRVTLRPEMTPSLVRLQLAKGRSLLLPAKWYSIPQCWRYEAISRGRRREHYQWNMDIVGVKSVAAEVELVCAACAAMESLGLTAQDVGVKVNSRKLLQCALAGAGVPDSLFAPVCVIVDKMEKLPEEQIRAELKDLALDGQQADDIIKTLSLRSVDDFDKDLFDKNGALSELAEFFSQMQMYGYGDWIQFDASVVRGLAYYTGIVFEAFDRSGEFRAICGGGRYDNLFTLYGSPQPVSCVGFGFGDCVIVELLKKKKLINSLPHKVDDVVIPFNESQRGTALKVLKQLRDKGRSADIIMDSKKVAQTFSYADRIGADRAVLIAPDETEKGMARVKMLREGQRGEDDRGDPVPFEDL

Results are given as percent effect. The controls that fix the scale are not given in the record; negative values are as filed. Compounds were drawn at random from those tested, without regard to their results. A dash means the value is not listed here; it may have been measured.

TcHisRS: 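Histidine-tRNA ligase, Trypanosoma cruzi CL Brener (UniProt Q4DA54). Enzyme assay of histidyl-tRNA synthetase; the read-out is not stated. Tested at 30 µM. Higher reads as stronger inhibition (inferred: compounds with an IC50 in retests scored well above the rest). Of about 69,000 compounds tested this way, about 31 (0.045%) reached 50% or more in at least one test.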
Leishmania in macrophages: 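Cell assay of Leishmania donovani living inside macrophages; the read-out is not stated. Compounds at 30 µM. Direction is inferred from retests: higher values go with stronger inhibition. Size under these conditions: about 69,000 compounds, about 1,000 of them at 50% or above in at least one test.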
Toxoplasma: 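Assay of Toxoplasma gondii numbers, read through their beta-galactosidase reporter with a colour substrate. Tested at 10 µM. The record gives no direction; the compounds picked for IC50 retests had high values, so higher reads as fewer parasites. Of about 67,000 compounds tested this way, about 260 (0.38%) reached 50% or more in at least one test.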
CoaBC: 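Coenzyme A biosynthesis protein CoaBC, Mycobacterium tuberculosis (UniProt P9WNZ1). Enzyme assay of CoaBC with a phosphate dye (Biomol Green) read at 650 nm. Compounds at 30 µM. Direction is inferred from only a few compounds that gave an IC50; most scored high, so higher reads as stronger inhibition. Most strong results did not repeat in a second test. Size under these conditions: about 67,000 compounds, about 40 of them at 50% or above in at least one test.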
LiHisRS: 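Enzyme assay of histidyl-tRNA synthetase; the read-out is not stated. Target: Histidine-tRNA ligase, Leishmania infantum (UniProt A4I591). Tested at 30 µM. Direction is inferred from retests: higher values go with stronger inhibition. The assay is labelled LdHisRS but filed under L. infantum. Of about 69,000 compounds tested this way, about 410 (0.6%) reached 50% or more in at least one test.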

For CN1CCC(N2CCC(C(=O)N(C)C)CC2)CC1 the result was TcHisRS: 10.61%; CoaBC: 4.97%; LiHisRS: 9.615%.
For O=S(=O)(C1CC1)N1CCOC2(CCCN(c3ccccc3)C2)C1 (configuration not stated) the result was TcHisRS: -40.23%; Leishmania in macrophages: -6.426%; Toxoplasma: -10.1%; CoaBC: 6.762%; LiHisRS: 18%.
For COc1ccc(N2CCC(NS(=O)(=O)N(C)C(C)C)CC2)cc1 the result was TcHisRS: 2.762%; Leishmania in macrophages: -18.84%; Toxoplasma: 0.8032%; CoaBC: 5.732%; LiHisRS: 12.44%.
For CS(=O)(=O)N1C[C@H]2CNC[C@@]2(C(=O)NCCCc2ccccc2)C1 the result was TcHisRS: 5.759%; CoaBC: 2.263%; LiHisRS: 2.151%.
For Cc1noc2nc(C3CCN(CC4CCCCC4)CC3)cc(C(F)F)c12 the result was TcHisRS: 6.667%; CoaBC: 6.295%; LiHisRS: 12.37%.
For CC(C)c1cc(C(F)(F)F)n2nc(C3CCN(S(C)(=O)=O)C3)cc2n1 (configuration not stated) the result was TcHisRS: 7.576%; Leishmania in macrophages: 14.63%; Toxoplasma: -6.732%; CoaBC: -2.365%; LiHisRS: 8.696%.
For CCc1nc(C2CCCN2C(=O)c2cnns2)no1 (configuration not stated) the result was TcHisRS: 1.765%; Leishmania in macrophages: 9.365%; Toxoplasma: -2.4%; CoaBC: -3.325%; LiHisRS: -1.835%.
For CNC(=O)CN1CCOCC2(CCCN(Cc3ccsc3)C2)C1 (configuration not stated) the result was TcHisRS: 5.288%; CoaBC: 3.529%; LiHisRS: 13.76%.
For Cc1cnc(CN2CCOC(CNc3cccnn3)C2)cn1 (configuration not stated) the result was TcHisRS: 0.7634%; Leishmania in macrophages: -19.63%; Toxoplasma: -2.329%; CoaBC: 0.7229%; LiHisRS: 0%.
For [H][C@@]12CCN(Cc3cc(C)on3)C[C@@]1([H])O[C@H](C)C2 the result was Leishmania in macrophages: 20.26%; Toxoplasma: -16.76%.
For C1CCC(c2nnc3sc(C4CCOC4)nn23)C1 (configuration not stated) the result was TcHisRS: 9.453%; Leishmania in macrophages: 14%; Toxoplasma: -8.61%; CoaBC: -8.642%; LiHisRS: 15.38%.
For CCCn1nccc1-c1cc(C2CCN(C(C)=O)CC2)ccn1 the result was TcHisRS: 9.125%; Leishmania in macrophages: -13.41%; Toxoplasma: -0.5714%; CoaBC: 0.618%; LiHisRS: 14.48%.
For Cc1cc(N(C)CCCn2cccn2)nc(-c2cccnc2)n1 the result was TcHisRS: 5%; Leishmania in macrophages: 2.986%; Toxoplasma: 30.82%; CoaBC: 0.1653%; LiHisRS: 2.041%.
For CC(C)NC(=O)N1CCC2(CC1)Cc1ccccc1CN(C)C2=O the result was TcHisRS: 10.61%; Leishmania in macrophages: 1.608%; Toxoplasma: -6.433%; CoaBC: 3.273%; LiHisRS: 15.38%.
For O=C(c1cocn1)N1C[C@@H]2COC[C@]2(COc2cccnc2)C1 the result was TcHisRS: 2.116%; CoaBC: 0.2469%; LiHisRS: 4.545%.

For reference, 2 entries once more:

Compound,TcHisRS,Leishmania in macrophages,Toxoplasma,CoaBC,LiHisRS
C1CCC(c2nnc3sc(C4CCOC4)nn23)C1 (configuration not stated),9.453%,14%,-8.61%,-8.642%,15.38%
CS(=O)(=O)N1C[C@H]2CNC[C@@]2(C(=O)NCCCc2ccccc2)C1,5.759%,-,-,2.263%,2.151%